Patent publication US20230192789A1, “STRUCTURALLY-STABILIZED AND HDMX-SELECTIVE P53 PEPTIDES AND USES THEREOF” (Dana-Farber Cancer Institute, Inc., priority 2020, published 2023)
At least one peptide structure holds a part that was inferred or is arguable (an end, a ring closure or a residue).

Test system: wild-type, Y99F, and Y99A HDMX (full-length)
Test: Streptavidin pull-down with wild-type, Y99F and Y99A HDMX proteins
Settings: biotinylated peptide, full-length HDMX proteins incubated individually, HDMX western

Structure (SMILES): CC(=O)N[C@@H](CC(C)C)C(=O)N[C@@H](CO)C(=O)N[C@@H](CCC(N)=O)C(=O)N[C@@H](CCC(=O)O)C(=O)N[C@H](C(=O)N[C@@H](Cc1ccccc1)C(=O)N[C@]1(C)CCCCCCC=CCCC[C@@](C)(C(=O)N[C@@H](CCC(=O)O)C(=O)N[C@@H](CC(N)=O)C(N)=O)NC(=O)[C@H](CCC(=O)O)NC(=O)[C@H](CC(C)C)NC(=O)[C@H](CCCCN)NC(=O)[C@H](Cc2c[nH]c3ccccc23)NC(=O)[C@H](CC(C)C)NC(=O)[C@H](CC(=O)O)NC1=O)[C@@H](C)O [SAH-p53-4 L26E]
- interaction with Y99F and Y99A HDMX: significantly impaired

Structure (SMILES): CC(=O)N[C@@H](CC(C)C)C(=O)N[C@@H](CO)C(=O)N[C@@H](CCC(N)=O)C(=O)N[C@@H](CCC(=O)O)C(=O)N[C@H](C(=O)N[C@@H](Cc1ccccc1)C(=O)N[C@]1(C)CCCCCCC=CCCC[C@@](C)(C(=O)N[C@@H](CCC(=O)O)C(=O)N[C@@H](CC(N)=O)C(N)=O)NC(=O)[C@H](CC(C)C)NC(=O)[C@H](CC(C)C)NC(=O)[C@H](CCCCN)NC(=O)[C@H](Cc2c[nH]c3ccccc23)NC(=O)[C@H](CC(C)C)NC(=O)[C@H](CC(=O)O)NC1=O)[C@@H](C)O [SAH-p53-4, LSQETF8DLWKLLXEN, reference compound]
- interaction with Y99F and Y99A HDMX: retained interaction
